# Test results as given in the supplement of paper PMC6411743.
# ± gives the standard deviation of the averaged measurements. The list shows a part of the results.
# Key:
# Assay in all cases: NP40-soluble protein abundance relative to vehicle (solubility fold change) (ratio); higher = more soluble protein in presence of GTP
# ACAD9 = molecular target: T1, ACAD9 (UniProt Q9H845)
# T1 sequence (whole entry): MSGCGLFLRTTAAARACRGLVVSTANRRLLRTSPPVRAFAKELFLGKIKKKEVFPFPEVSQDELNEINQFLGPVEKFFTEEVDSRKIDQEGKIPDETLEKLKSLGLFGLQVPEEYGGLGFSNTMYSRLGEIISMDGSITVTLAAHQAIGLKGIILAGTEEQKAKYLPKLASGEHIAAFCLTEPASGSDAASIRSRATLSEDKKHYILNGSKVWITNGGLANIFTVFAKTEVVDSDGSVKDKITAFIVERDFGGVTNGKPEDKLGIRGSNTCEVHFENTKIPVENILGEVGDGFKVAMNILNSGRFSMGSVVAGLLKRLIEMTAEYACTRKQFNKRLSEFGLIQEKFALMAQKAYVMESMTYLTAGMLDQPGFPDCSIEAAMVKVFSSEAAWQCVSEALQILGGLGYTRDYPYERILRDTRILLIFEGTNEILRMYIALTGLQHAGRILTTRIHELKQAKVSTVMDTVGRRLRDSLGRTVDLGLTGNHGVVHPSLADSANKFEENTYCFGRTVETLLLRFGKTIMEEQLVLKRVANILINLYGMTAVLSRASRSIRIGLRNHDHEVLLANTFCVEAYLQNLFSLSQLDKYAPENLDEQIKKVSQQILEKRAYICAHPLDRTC
# Procedure, shortened: (§1)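 In three independent experiments, Jurkat crude lysate made by Dounce homogenisation was treated for 10 min at room temperature and then 3 min at 37 °C with eight concentrations ranging from 0.1 to 10 mM. It was then solubilised with 0.8% NP40 plus benzonase for 60 min at 4 °C and ultracentrifuged. The supernatant was TMT-labelled for LC-MS/MS, and each value is the fold change against the detergent-processed vehicle for the same replicate, using vsn-normalised intensities.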
# DCP1A = molecular target: T2, DCP1A (UniProt Q9NPI6)
# T2 sequence (whole entry): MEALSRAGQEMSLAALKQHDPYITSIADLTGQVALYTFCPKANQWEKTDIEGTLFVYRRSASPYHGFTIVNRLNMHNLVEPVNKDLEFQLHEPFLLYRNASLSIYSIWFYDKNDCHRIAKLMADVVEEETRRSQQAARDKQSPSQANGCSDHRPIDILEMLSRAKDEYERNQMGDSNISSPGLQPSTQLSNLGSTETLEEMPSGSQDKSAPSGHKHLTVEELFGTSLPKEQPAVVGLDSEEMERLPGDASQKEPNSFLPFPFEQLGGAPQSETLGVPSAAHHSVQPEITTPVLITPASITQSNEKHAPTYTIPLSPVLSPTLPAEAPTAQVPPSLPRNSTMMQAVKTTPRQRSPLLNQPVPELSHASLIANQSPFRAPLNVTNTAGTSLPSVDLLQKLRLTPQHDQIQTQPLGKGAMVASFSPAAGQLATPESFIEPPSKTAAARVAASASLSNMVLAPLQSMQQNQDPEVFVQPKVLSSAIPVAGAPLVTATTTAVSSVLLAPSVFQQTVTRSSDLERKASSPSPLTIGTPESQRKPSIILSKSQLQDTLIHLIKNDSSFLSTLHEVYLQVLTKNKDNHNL
# Procedure, shortened: as §1
# FARSB = molecular target: T3, FARSB (UniProt Q9NSD9)
# T3 sequence (whole entry): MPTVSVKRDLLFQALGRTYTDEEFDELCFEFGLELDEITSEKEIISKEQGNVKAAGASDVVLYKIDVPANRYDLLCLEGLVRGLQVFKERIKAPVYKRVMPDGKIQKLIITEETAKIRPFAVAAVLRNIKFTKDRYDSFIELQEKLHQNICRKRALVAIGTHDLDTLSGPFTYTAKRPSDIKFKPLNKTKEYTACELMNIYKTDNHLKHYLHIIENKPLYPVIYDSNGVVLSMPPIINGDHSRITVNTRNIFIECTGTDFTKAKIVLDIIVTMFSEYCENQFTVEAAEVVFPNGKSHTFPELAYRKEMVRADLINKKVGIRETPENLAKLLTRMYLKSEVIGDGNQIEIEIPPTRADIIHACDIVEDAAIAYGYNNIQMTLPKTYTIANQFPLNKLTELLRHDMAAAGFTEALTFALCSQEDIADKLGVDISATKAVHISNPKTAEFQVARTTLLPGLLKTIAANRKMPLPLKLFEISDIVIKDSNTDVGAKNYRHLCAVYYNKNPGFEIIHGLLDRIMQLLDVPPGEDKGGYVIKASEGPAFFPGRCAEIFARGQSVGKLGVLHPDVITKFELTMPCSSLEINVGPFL
# Procedure, shortened: as §1
# PLEKHF2 = molecular target: T4, PLEKHF2 (UniProt Q9H8W4)
# T4 sequence (whole entry): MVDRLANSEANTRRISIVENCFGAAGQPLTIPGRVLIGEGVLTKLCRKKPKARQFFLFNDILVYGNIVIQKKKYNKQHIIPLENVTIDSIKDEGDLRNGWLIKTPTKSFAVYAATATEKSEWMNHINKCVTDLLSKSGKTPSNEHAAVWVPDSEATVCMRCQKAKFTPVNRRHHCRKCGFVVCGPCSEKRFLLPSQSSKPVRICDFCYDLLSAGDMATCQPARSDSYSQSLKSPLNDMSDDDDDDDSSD
# Procedure, shortened: as §1
# PREB = molecular target: T5, PREB (UniProt Q9HCU5)
# T5 sequence (whole entry): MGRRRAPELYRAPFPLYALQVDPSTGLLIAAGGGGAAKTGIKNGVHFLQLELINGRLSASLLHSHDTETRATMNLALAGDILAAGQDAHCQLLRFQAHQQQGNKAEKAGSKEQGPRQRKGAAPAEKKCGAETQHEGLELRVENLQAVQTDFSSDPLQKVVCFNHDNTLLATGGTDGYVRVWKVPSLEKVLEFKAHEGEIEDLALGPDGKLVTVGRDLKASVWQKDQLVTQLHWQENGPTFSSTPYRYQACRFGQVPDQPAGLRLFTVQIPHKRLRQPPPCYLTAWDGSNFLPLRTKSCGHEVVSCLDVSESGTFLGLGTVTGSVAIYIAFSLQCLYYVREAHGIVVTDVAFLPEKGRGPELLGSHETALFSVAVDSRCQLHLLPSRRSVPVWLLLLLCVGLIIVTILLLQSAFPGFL
# Procedure, shortened: as §1
structure (smiles),measurement,setting,value
Nc1nc2c(ncn2[C@@H]2O[C@H](COP(=O)(O)OP(=O)(O)OP(=O)(O)O)[C@@H](O)[C@H]2O)c(=O)[nH]1 [guanosine triphosphate],NP40-soluble protein abundance,ACAD9; concentration: 0.1mM,1.01 ± 0.063
same,NP40-soluble protein abundance,ACAD9; concentration: 0.5mM,1.02 ± 0.052
same,NP40-soluble protein abundance,ACAD9; concentration: 1mM,0.965 ± 0.054
same,NP40-soluble protein abundance,ACAD9; concentration: 2mM,0.967 ± 0.05
same,NP40-soluble protein abundance,ACAD9; concentration: 4mM,0.946 ± 0.086
same,NP40-soluble protein abundance,ACAD9; concentration: 6mM,0.957 ± 0.042
same,NP40-soluble protein abundance,ACAD9; concentration: 8mM,0.929 ± 0.058
same,NP40-soluble protein abundance,ACAD9; concentration: 10mM,0.901 ± 0.015
same,NP40-soluble protein abundance,DCP1A; concentration: 0.1mM,0.984 ± 0.065
same,NP40-soluble protein abundance,DCP1A; concentration: 0.5mM,0.994 ± 0.088
same,NP40-soluble protein abundance,DCP1A; concentration: 1mM,0.961 ± 0.047
same,NP40-soluble protein abundance,DCP1A; concentration: 2mM,0.965 ± 0.041
same,NP40-soluble protein abundance,DCP1A; concentration: 4mM,0.97 ± 0.053
same,NP40-soluble protein abundance,DCP1A; concentration: 6mM,0.955 ± 0.04
same,NP40-soluble protein abundance,DCP1A; concentration: 8mM,0.944 ± 0.073
same,NP40-soluble protein abundance,DCP1A; concentration: 10mM,0.948 ± 0.071
same,NP40-soluble protein abundance,FARSB; concentration: 0.1mM,1.05 ± 0.043
same,NP40-soluble protein abundance,FARSB; concentration: 0.5mM,1.06 ± 0.074
same,NP40-soluble protein abundance,FARSB; concentration: 1mM,0.933 ± 0.035
same,NP40-soluble protein abundance,FARSB; concentration: 2mM,0.944 ± 0.091
same,NP40-soluble protein abundance,FARSB; concentration: 4mM,0.954 ± 0.064
same,NP40-soluble protein abundance,FARSB; concentration: 6mM,0.925 ± 0.059
same,NP40-soluble protein abundance,FARSB; concentration: 8mM,0.875 ± 0.012
same,NP40-soluble protein abundance,FARSB; concentration: 10mM,0.844 ± 0.057
same,NP40-soluble protein abundance,PLEKHF2; concentration: 0.1mM,0.956 ± 0.025
same,NP40-soluble protein abundance,PLEKHF2; concentration: 0.5mM,0.96 ± 0.012
same,NP40-soluble protein abundance,PLEKHF2; concentration: 1mM,0.897 ± 0.06
same,NP40-soluble protein abundance,PLEKHF2; concentration: 2mM,0.894 ± 0.074
same,NP40-soluble protein abundance,PLEKHF2; concentration: 4mM,0.861 ± 0.063
same,NP40-soluble protein abundance,PLEKHF2; concentration: 6mM,0.853 ± 0.027
same,NP40-soluble protein abundance,PLEKHF2; concentration: 8mM,0.853 ± 0.068
same,NP40-soluble protein abundance,PLEKHF2; concentration: 10mM,0.854 ± 0.095
same,NP40-soluble protein abundance,PREB; concentration: 0.1mM,1.04 ± 0.025
same,NP40-soluble protein abundance,PREB; concentration: 0.5mM,1 ± 0.013

# Random excerpt: 2 records from the list.
structure (smiles),measurement,setting,value
Nc1nc2c(ncn2[C@@H]2O[C@H](COP(=O)(O)OP(=O)(O)OP(=O)(O)O)[C@@H](O)[C@H]2O)c(=O)[nH]1 [guanosine triphosphate],NP40-soluble protein abundance,FARSB; concentration: 10mM,0.844 ± 0.057
same,NP40-soluble protein abundance,DCP1A; concentration: 0.5mM,0.994 ± 0.088
